These results are taken from publication doi:10.1101/2021.12.22.473497.

Experiment [1] addresses T1, BD-RBR^NF (RBR with N849F fused to the GAL4 DNA binding domain) (Arabidopsis thaliana) (UniProt Q9LKZ3).
T1 sequence: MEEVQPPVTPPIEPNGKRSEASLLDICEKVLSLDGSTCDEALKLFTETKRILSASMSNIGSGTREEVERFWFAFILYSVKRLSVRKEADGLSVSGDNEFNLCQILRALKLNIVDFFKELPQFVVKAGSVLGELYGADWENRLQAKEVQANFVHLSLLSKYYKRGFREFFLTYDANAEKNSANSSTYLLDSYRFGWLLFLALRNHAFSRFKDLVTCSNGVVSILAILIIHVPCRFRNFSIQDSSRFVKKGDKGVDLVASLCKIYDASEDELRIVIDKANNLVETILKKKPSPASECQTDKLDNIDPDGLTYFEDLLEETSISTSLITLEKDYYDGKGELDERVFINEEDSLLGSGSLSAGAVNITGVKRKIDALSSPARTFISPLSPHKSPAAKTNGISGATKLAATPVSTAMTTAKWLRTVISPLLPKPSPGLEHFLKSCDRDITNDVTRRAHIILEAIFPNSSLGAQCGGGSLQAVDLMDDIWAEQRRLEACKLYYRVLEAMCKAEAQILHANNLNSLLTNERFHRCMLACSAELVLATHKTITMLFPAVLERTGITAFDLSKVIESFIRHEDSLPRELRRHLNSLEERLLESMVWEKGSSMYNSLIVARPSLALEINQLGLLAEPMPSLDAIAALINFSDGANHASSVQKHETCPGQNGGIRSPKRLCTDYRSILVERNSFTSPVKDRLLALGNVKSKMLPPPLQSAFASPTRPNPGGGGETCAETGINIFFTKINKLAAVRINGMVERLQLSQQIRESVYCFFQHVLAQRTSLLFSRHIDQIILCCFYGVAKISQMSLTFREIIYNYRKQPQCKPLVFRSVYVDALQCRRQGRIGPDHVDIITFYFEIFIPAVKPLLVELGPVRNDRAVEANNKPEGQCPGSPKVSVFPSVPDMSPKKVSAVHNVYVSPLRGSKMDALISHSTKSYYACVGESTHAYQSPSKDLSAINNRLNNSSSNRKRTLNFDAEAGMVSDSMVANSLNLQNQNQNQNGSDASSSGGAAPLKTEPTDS
Description: two-hybrid.

Experiment [2] concerns the target T2, BD-RBR (RETINOBLASTOMA-RELATED1 protein fused to the GAL4 DNA binding domain) (Arabidopsis thaliana) (UniProt Q9LKZ3).
T2 sequence: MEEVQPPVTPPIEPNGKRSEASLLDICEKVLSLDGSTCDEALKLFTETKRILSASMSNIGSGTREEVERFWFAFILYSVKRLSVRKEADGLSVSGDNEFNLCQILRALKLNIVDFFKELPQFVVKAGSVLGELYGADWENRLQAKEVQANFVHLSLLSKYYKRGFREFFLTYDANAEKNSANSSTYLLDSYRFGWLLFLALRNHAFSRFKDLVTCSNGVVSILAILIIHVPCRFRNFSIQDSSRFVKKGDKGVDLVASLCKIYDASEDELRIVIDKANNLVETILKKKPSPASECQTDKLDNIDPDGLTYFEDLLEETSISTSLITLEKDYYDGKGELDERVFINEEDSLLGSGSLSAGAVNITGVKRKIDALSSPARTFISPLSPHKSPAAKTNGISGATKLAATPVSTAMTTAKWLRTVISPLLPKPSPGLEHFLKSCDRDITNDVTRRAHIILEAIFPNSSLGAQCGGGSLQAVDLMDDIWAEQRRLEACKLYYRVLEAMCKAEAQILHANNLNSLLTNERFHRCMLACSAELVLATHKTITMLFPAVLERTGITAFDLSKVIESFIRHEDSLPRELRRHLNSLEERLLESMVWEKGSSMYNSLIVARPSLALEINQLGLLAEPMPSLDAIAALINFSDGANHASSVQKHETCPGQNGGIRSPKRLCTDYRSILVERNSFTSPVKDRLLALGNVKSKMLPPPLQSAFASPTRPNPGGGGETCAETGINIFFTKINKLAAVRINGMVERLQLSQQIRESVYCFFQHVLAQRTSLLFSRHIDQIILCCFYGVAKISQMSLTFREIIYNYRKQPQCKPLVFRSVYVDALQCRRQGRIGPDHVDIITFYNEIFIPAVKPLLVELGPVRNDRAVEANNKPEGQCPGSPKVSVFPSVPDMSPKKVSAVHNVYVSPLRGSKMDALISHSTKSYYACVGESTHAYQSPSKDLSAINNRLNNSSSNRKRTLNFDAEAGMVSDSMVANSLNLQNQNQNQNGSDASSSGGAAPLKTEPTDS
The experiment is described as follows: two-hybrid.

Results are given in words; binding and its absence hold for the method and conditions named. Sequences can lack the tags named with a protein.

B1: AD-SOG1 (SUPPRESSOR OF GAMMA RESPONSE1 fused to the GAL4 activation domain) (protein, UniProt Q6NQK2 1-449)
chain: MAGRSWLIDSNRIATKIMSASASSDPRQVVWKSNPSRHCPKCQHVIDNSDVVDDWPGLPRGVKFDPSDPEIIWHLLAKSGLSGLSSHPFIDEFIPTVNQDDGICYTHPKNLPGVKSDGTVSHFFHKAIKAYSTGTRKRRKIHDDDFGDVRWHKTGRTKPVVLDGVQRGCKKIMVLYGGKAVKTNWVMHQYHLGIEEDEKEGDYVVSKIFYQQPQQLVVKRGDKAEQEVSEDIFAAVTPTADPVTPKLATPEPRNAVRICSDSHIASDYVTPSDYVSAHEVSLAETSEVMCMEDEVQSIQPNHERPSSGPELEHGLENGAKEMLDDKEEQEKDRDNENQGEEDPTWFDSGSQFILNSQQLVEALSLCDDLLGSQDREENTNSGSLKDKQPCIADYAHLGPEDFKRDLEECQKIVLDPSNIELDTPPEFRLSQLEFGSQDSFLAWGTGKTD
On to B1, for which the binding entry in experiment [1] and in experiment [2] was “no binding” in each case.

B2: RAD54, yeast two-hybrid fusion (protein, UniProt Q0PCS3 1-910)
chain: MEEEDEEILSSSDCDDSSDSYKDDSQDSEGENDNPECEDLAVVSLSSDADRKSKNVKDLLRGNLVVQRQPLLPRVLSVSDGAAVCRKPFKPPCSHGYDSTGQLSRRLSARKRFVPWGSSTPVVVALPTKLEASTNIERDEEEEVVCLPPDIEPLVLWQSEEDGMSNVTTIMVHSVLVKFLRPHQREGVQFMFDCVSGLHGSANINGCILADDMGLGKTLQSITLLYTLLCQGFDGTPMVKKAIIVTPTSLVSNWEAEIKKWVGDRIQLIALCESTRDDVLSGIDSFTRPRSALQVLIISYETFRMHSSKFCQSESCDLLICDEAHRLKNDQTLTNRALASLTCKRRVLLSGTPMQNDLEEFFAMVNFTNPGSLGDAAHFRHYYEAPIICGREPTATEEEKNLAADRSAELSSKVNQFILRRTNALLSNHLPPKIIEVVCCKMTTLQSTLYNHFISSKNLKRALADNAKQTKVLAYITALKKLCNHPKLIYDTIKSGNPGTVGFENCLEFFPAEMFSGRSGAWTGGDGAWVELSGKMHVLSRLLANLRRKTDDRIVLVSNYTQTLDLFAQLCRERRYPFLRLDGSTTISKRQKLVNRLNDPTKDEFAFLLSSKAGGCGLNLIGANRLVLFDPDWNPANDKQAAARVWRDGQKKRVYVYRFLSTGTIEEKVYQRQMSKEGLQKVIQHEQTDNSTRQGNLLSTEDLRDLFSFHGDVRSEIHEKMSCSRCQNDASGTENIEEGNENNVDDNACQIDQEDIGGFAKDAGCFNLLKNSERQVGTPLEEDLGSWGHHFTSKSVPDAILQASAGDEVTFVFTNQVDGKLVPIESNVSPKTVESEEHNRNQPVNKRAFNKPQQRPREPLQPLSLNETTKRVKLSTYKRLHGNSNIDDAQIKMSLQRPNLVSVNHDDDFV
In the case of B2, the binding result in experiment [2] is listed as “no binding”.
